Taken from: PubChem BioAssay AID1508597 (Cure First, 2020)
This is a random part of the about 2,100 reagents, under one of the conditions tested. 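Calls flag viability under 80% in either arm, not effects specific to rucaparib; the reference for percent is not stated.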 Some reagents were tested in more than one well and are listed for each. No sequences are given here. The record does not give: the 100% reference.

Screen: 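Survival screen with siRNA in ovarian cancer cells derived from patients, with or without rucaparib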 (primary screen)
System: human ovarian carcinoma lines grown from tumours: OCI-P5x (papillary serous) and OCI-C5x (clear cell)
Reagent: siRNA pool against human genes, 1.25 pmol siRNA per well
Duration: 72 h or 96 h, depending on the cell culture
Conditions: rucaparib 20 µM (about IC30) or vehicle, present until read-out
Rucaparib or vehicle: Vehicle
Cell line: OCI-C5x (clear cell)
Measurement: 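ATP luminescence measured at 72 or 96 h according to the culture, then normalised and expressed as percent viability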
Reading the numbers: viability, normalised: higher = more viable cells remaining
Active means: 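a well counts as a hit if its normalised viability is under 80 percent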
Calls: active = viability under 80%; inactive = viability 80% or more

gene	PubChem SID	technical replicate	viability, normalised (%)	Call
PANK3 (GeneID 79646)	SID405527847	1	38	active
PANK3 (GeneID 79646)	SID405527847	2	52.8	active
PANK3 (GeneID 79646)	SID405527847	3	26.3	active
EIF2AK4 (GeneID 440275)	SID405527363	1	102	inactive
EIF2AK4 (GeneID 440275)	SID405527363	2	87	inactive
EIF2AK4 (GeneID 440275)	SID405527363	3	119	inactive
MAPKAPK5 (GeneID 8550)	SID405527628	1	52.5	active
MAPKAPK5 (GeneID 8550)	SID405527628	2	76.2	active
MAPKAPK5 (GeneID 8550)	SID405527628	3	66.5	active
DUSP1 (GeneID 1843)	SID405526739	1	51.8	active
DUSP1 (GeneID 1843)	SID405526739	2	52.7	active
DUSP1 (GeneID 1843)	SID405526739	3	34.4	active
HDAC2 (GeneID 3066)	SID405526840	1	55.1	active
HDAC2 (GeneID 3066)	SID405526840	1	41.1	active
HDAC2 (GeneID 3066)	SID405526840	2	49.5	active
HDAC2 (GeneID 3066)	SID405526840	2	50.4	active
HDAC2 (GeneID 3066)	SID405526840	3	57.3	active
HDAC2 (GeneID 3066)	SID405526840	3	45.4	active
CDK11A (GeneID 728642)	SID405527422	1	63.2	active
CDK11A (GeneID 728642)	SID405527422	1	47.1	active
CDK11A (GeneID 728642)	SID405527422	2	73.4	active
CDK11A (GeneID 728642)	SID405527422	2	38.4	active
CDK11A (GeneID 728642)	SID405527422	3	38.5	active
CDK11A (GeneID 728642)	SID405527422	3	32	active
FANCD2 (GeneID 2177)	SID405526458	1	48.9	active
FANCD2 (GeneID 2177)	SID405526458	1	63.5	active
FANCD2 (GeneID 2177)	SID405526458	2	57.3	active
FANCD2 (GeneID 2177)	SID405526458	2	56.2	active
FANCD2 (GeneID 2177)	SID405526458	3	51	active
FANCD2 (GeneID 2177)	SID405526458	3	55.2	active
TRIB1 (GeneID 10221)	SID405526367	1	48.6	active
TRIB1 (GeneID 10221)	SID405526367	1	47.3	active
TRIB1 (GeneID 10221)	SID405526367	2	46.7	active
TRIB1 (GeneID 10221)	SID405526367	2	43.4	active
TRIB1 (GeneID 10221)	SID405526367	3	29.5	active
TRIB1 (GeneID 10221)	SID405526367	3	40.4	active
SUDS3 (GeneID 64426)	SID405526503	1	26.3	active
SUDS3 (GeneID 64426)	SID405526503	2	26.8	active
SUDS3 (GeneID 64426)	SID405526503	3	34.9	active
ZCCHC13 (GeneID 389874)	SID405526642	1	62	active
ZCCHC13 (GeneID 389874)	SID405526642	2	67	active
ZCCHC13 (GeneID 389874)	SID405526642	3	33.5	active
BRD9 (GeneID 65980)	SID405528045	1	28.2	active
BRD9 (GeneID 65980)	SID405528045	2	44.5	active
BRD9 (GeneID 65980)	SID405528045	3	49.3	active
DCK (GeneID 1633)	SID405527548	1	65	active
DCK (GeneID 1633)	SID405527548	1	52.1	active
DCK (GeneID 1633)	SID405527548	2	82.1	inactive
DCK (GeneID 1633)	SID405527548	2	66.7	active
DCK (GeneID 1633)	SID405527548	3	61.3	active
DCK (GeneID 1633)	SID405527548	3	64	active
CLDN11 (GeneID 5010)	SID405528125	1	34.6	active
CLDN11 (GeneID 5010)	SID405528125	2	53.3	active
CLDN11 (GeneID 5010)	SID405528125	3	31.6	active
BRIP1 (GeneID 83990)	SID405528048	1	66.5	active
BRIP1 (GeneID 83990)	SID405528048	1	47.4	active
BRIP1 (GeneID 83990)	SID405528048	2	48.1	active
BRIP1 (GeneID 83990)	SID405528048	2	66.3	active
BRIP1 (GeneID 83990)	SID405528048	3	68.2	active
BRIP1 (GeneID 83990)	SID405528048	3	73.6	active
SFMBT1 (GeneID 51460)	SID405527291	1	51.4	active
SFMBT1 (GeneID 51460)	SID405527291	2	36.7	active
SFMBT1 (GeneID 51460)	SID405527291	3	49.2	active
PSIP1 (GeneID 11168)	SID405527209	1	45	active
PSIP1 (GeneID 11168)	SID405527209	2	29.9	active
PSIP1 (GeneID 11168)	SID405527209	3	48.6	active
HAUS7 (GeneID 55559)	SID405526421	1	50.7	active
HAUS7 (GeneID 55559)	SID405526421	2	48.9	active
HAUS7 (GeneID 55559)	SID405526421	3	54.8	active
ETNK2 (GeneID 55224)	SID405527731	1	35.7	active
ETNK2 (GeneID 55224)	SID405527731	2	61.1	active
ETNK2 (GeneID 55224)	SID405527731	3	42.5	active
ROS1 (GeneID 6098)	SID405527759	1	69	active
ROS1 (GeneID 6098)	SID405527759	2	52.5	active
ROS1 (GeneID 6098)	SID405527759	3	47.9	active

Look-ups from the list.
Value of ETNK2 (GeneID 55224) [SID405527731], technical replicate 2 under “viability, normalised (%)”: 61.1
Value for MAPKAPK5 (GeneID 8550) [SID405527628], technical replicate 3 under “viability, normalised (%)”: 66.5
PANK3 (GeneID 79646) [SID405527847], technical replicate 1, viability, normalised (%) → 38
BRD9 (GeneID 65980) [SID405528045], technical replicate 2, viability, normalised (%) → 44.5
